US4420643A, “Extraction of phenols from aqueous solutions” (priority 1982, dated 1983)

Assay: Extraction of phenol from 1% aqueous solution with high boiling solvents alone and with TOPO (Example 3, Table III)
Type: physicochemical
Details: for extraction efficiency in the presence of TOPO: solvent + TOPO, A/O ratios of 0.5 and 1.0; for extraction efficiency when used alone: solvent alone
Procedure: A number of high boiling solvents, which would allow recovery of the extracted phenol without the necessity of distilling the solvent, were evaluted and the distribution coefficient calculated for the solvent alone and containing 133 g/l of TOPO. The aqueous solution extracted contained 1% phenol, which was contacted with the solvent or solvent plus TOPO for 10 minutes at 24° C.

Substance | extraction efficiency in the presence of TOPO | extraction efficiency when used alone
Isopropyl naphthalene | surprisingly efficient in the presence of TOPO | inefficient when used alone
Diisopropyl naphthalene | surprisingly efficient in the presence of TOPO | inefficient when used alone
